Data from the supplement of paper PMC10849652.
The other results are listed elsewhere or left out.

Protein sequences, listed by entry. Tags and fused reporters are not part of them. Lines headed by an entry give the natural chain unless they say otherwise; changes in a name come on top.
UniProt P78330: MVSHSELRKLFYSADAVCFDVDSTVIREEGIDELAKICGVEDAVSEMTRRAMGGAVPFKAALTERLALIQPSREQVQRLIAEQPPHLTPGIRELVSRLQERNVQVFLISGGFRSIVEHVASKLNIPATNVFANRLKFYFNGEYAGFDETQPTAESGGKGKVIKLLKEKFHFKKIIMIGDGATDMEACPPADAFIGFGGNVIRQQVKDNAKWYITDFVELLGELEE
UniProt Q92530: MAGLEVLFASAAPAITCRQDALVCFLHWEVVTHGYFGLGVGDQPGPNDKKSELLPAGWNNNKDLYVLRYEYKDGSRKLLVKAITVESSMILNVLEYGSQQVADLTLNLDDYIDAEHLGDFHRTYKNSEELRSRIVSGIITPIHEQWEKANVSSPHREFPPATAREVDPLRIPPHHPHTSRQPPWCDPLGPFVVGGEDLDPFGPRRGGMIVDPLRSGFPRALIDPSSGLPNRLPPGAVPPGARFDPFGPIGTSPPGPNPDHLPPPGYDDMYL
UniProt Q9H974: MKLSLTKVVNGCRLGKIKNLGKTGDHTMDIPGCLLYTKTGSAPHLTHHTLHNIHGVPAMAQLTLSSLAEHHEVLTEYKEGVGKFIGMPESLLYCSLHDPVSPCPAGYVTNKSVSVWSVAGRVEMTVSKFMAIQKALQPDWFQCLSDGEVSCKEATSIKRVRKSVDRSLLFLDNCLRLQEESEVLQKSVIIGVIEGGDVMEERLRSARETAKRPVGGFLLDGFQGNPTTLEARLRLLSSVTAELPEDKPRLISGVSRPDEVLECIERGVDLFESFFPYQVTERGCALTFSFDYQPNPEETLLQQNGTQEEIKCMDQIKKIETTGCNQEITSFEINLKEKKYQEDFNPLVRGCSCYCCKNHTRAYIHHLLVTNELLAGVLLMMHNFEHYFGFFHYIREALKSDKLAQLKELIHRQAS
UniProt Q15274: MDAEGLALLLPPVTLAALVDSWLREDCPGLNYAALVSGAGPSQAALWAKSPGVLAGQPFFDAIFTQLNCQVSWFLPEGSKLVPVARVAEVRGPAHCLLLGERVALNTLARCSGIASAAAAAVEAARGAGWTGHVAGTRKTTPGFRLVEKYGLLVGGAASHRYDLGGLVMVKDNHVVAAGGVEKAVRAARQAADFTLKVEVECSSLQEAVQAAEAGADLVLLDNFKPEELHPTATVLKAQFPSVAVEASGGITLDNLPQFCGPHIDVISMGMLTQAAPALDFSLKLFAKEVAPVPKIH
UniProt O95456: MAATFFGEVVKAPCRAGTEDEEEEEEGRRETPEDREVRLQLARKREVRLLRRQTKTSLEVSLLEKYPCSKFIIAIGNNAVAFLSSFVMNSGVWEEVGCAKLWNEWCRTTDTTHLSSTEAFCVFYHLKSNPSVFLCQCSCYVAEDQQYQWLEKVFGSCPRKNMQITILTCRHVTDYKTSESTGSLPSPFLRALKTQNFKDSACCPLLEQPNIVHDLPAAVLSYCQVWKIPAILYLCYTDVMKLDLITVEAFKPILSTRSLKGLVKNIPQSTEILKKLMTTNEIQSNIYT
UniProt P18433: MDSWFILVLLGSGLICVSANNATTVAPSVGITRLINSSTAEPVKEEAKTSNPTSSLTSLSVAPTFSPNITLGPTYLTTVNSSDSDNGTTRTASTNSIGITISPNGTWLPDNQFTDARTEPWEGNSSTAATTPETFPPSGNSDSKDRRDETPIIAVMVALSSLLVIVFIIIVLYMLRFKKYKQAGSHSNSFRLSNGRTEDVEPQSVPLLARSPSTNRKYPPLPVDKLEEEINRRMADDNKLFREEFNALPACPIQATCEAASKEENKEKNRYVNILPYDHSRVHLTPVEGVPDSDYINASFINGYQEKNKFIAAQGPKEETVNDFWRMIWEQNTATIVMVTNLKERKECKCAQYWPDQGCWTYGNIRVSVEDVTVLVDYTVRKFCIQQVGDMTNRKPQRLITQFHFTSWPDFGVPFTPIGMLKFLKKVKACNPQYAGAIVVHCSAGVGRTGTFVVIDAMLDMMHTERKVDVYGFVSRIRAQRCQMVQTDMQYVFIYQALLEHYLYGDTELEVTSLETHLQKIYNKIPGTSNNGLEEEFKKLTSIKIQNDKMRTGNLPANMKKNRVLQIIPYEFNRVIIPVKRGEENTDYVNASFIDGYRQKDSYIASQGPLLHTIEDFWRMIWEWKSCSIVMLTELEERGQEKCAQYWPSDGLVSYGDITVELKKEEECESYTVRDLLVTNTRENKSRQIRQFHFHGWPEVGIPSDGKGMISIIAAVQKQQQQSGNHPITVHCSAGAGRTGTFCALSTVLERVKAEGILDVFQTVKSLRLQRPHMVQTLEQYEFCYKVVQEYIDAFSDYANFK
UniProt Q96C36: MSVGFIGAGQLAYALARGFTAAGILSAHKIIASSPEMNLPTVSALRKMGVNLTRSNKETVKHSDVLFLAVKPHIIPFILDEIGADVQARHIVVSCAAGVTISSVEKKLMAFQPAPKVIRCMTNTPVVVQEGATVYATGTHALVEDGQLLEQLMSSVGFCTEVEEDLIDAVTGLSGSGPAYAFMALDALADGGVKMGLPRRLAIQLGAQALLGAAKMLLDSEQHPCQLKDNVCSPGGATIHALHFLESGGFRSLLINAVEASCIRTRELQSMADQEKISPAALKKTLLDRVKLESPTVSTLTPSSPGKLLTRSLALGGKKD
UniProt P26599: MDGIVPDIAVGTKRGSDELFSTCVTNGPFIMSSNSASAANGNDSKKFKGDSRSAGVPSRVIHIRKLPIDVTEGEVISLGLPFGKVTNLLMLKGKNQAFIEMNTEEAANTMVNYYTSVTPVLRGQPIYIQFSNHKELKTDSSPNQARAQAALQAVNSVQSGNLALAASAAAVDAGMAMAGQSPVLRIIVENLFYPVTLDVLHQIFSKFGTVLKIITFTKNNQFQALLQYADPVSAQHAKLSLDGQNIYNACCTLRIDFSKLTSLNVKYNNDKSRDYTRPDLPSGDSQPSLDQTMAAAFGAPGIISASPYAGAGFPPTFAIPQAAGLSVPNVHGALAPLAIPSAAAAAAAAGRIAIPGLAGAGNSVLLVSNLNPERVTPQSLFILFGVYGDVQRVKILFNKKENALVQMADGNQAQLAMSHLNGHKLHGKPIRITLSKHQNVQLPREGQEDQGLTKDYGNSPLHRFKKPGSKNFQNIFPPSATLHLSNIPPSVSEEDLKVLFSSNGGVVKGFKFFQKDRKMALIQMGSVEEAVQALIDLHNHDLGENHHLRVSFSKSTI
UniProt Q9UL46, whole entry, looked up: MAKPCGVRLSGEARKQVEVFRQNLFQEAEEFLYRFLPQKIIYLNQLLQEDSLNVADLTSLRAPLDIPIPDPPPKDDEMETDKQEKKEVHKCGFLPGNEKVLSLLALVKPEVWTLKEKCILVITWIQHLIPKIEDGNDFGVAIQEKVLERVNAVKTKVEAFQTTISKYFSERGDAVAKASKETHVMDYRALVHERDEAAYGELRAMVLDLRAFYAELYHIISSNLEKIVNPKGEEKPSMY
UniProt P60900, whole entry, looked up: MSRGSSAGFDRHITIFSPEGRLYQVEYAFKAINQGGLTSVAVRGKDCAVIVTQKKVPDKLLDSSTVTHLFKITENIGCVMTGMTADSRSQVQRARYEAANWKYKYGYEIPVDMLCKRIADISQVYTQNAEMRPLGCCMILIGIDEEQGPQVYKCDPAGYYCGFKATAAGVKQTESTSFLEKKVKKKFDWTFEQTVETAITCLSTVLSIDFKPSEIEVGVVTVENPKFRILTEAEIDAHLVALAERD
UniProt P23219, whole entry, looked up: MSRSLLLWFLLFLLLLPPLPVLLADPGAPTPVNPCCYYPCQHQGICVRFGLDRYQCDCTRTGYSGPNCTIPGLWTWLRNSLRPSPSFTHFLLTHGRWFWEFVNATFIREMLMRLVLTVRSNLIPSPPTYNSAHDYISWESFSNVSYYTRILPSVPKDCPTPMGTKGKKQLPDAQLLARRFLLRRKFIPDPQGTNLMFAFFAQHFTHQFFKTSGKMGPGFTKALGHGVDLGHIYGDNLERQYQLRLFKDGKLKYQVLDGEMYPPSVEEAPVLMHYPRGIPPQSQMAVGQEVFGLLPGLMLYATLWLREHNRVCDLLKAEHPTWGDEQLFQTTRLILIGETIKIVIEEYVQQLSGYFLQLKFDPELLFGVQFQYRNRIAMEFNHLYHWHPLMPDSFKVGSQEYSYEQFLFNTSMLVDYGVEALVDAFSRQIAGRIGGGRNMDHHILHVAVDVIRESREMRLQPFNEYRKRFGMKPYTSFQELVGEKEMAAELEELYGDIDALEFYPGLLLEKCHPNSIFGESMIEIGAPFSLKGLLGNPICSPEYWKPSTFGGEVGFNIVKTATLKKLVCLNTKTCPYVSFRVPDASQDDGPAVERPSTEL
UniProt Q9ULZ3, whole entry, looked up: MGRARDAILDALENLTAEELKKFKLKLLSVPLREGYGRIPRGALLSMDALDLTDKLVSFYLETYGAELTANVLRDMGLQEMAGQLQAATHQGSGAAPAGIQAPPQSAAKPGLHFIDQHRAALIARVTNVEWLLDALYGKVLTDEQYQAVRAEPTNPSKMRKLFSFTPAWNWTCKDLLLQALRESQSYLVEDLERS
UniProt Q8TBF2: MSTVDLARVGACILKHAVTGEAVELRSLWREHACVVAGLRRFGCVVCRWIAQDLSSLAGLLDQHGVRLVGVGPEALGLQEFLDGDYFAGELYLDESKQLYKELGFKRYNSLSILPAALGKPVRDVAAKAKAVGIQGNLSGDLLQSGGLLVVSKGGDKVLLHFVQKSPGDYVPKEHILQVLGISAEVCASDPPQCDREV
UniProt Q3MIT2: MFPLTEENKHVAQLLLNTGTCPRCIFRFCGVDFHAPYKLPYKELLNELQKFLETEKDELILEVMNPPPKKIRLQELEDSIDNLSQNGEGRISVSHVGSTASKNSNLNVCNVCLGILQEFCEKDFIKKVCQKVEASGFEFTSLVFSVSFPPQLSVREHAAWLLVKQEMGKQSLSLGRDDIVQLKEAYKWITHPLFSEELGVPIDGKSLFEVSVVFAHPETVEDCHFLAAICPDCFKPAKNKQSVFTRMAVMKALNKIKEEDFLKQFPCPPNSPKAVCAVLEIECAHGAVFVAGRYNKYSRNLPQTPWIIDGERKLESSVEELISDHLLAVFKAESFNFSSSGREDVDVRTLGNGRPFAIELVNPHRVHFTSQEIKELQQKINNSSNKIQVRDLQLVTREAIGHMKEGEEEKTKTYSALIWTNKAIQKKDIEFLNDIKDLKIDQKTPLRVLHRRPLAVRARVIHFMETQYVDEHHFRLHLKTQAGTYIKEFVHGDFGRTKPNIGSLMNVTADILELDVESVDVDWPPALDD
UniProt Q08623: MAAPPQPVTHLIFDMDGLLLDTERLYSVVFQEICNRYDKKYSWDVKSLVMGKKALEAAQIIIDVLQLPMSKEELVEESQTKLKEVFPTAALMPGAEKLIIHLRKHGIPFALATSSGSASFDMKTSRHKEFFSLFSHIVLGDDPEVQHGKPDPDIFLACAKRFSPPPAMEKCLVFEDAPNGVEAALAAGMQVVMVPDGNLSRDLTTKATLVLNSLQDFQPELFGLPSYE
UniProt Q15269: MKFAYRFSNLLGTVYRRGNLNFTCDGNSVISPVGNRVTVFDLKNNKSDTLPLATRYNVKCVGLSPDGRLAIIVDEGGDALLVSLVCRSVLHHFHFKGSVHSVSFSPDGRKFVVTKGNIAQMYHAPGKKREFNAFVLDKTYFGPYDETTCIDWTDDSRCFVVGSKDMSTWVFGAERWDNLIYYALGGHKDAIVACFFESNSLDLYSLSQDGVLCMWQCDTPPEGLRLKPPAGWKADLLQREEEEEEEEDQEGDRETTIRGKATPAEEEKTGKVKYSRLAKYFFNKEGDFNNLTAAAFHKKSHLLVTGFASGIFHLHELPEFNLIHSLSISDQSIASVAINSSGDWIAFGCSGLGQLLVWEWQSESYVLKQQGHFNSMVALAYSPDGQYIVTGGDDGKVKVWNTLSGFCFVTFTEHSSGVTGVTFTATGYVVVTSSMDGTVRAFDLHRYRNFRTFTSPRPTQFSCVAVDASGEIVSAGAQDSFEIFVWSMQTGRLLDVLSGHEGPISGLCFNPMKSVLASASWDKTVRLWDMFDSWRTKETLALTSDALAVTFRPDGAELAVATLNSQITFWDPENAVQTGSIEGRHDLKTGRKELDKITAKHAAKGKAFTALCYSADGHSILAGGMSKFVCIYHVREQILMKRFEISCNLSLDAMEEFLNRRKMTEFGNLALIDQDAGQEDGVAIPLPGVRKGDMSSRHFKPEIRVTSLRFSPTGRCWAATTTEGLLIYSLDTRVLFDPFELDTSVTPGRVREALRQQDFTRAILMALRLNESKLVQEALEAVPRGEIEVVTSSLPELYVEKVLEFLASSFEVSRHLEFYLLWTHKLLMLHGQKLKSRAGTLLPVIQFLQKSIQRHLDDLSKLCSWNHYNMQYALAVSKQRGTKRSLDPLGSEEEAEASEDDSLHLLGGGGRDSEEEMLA

How the values were obtained:
Assay in all cases: log2 fold change, soluble protein after heating vs DMSO (PISA); higher = thermal stabilisation; K562 cells, 10 uM, 30 min; active = over 0.2 and 3.5 SD of the protein, either way, in both replicates (recomputed)
[1] = compound: CC1=C(C=C(C=C1)NC(=O)C2=CC(=CC=C2)C(C)(C)C#N)NC3=CC4=C(C=C3)N=CN(C4=O)C
In short: (§1)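 K562 cells (2×10^6 cells/mL) were treated with 10 μM compound for 30 min, and aliquots were heated for 3 min over 48°C-58°C. Pooled aliquots were extracted in PBS with 0.5% NP-40 at 4°C, and the supernatant after 21,000xg for 90 min was measured by TMTpro 16plex LC-MS/MS with channel sums equalised. Reported thermal stability, relative to control samples and from duplicates, is a log2 fold change.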

[2] = compound: CC1=C(C=C(C=C1)NC(=O)C2=CC(=CC=C2)N(C)C)NC(=O)C3=CC=C(C=C3)O
In short: as §1

[3] = compound: CC1=CC=C(C=C1)SC2=C3C=C(SC3=CN=C2)C(=O)N
In short: as §1

[4] = compound: CC1=NC(=CC=C1)C2=C(N=C(N2)C(C)(C)C)C3=CC4=NC=CN=C4C=C3
In short: as §1

Nexturastat A = compound: CCCCN(Cc1ccc(C(=O)NO)cc1)C(=O)Nc1ccccc1 [Nexturastat A]
In short: as §1

vemurafenib = compound: CCCS(=O)(=O)Nc1ccc(F)c(C(=O)c2c[nH]c3ncc(-c4ccc(Cl)cc4)cc23)c1F [vemurafenib]
In short: as §1

[5] = compound: CCCS(=O)(=O)Nc1ccc(F)c(C(=O)c2c[nH]c3ncc(Cl)cc23)c1F
In short: as §1

[6] = compound: CCCc1cc(C)[nH]c(=O)c1CNC(=O)c1cc(-c2ccnc(N3CCN(C)CC3)c2)cc2c1cnn2C(C)C
In short: as §1

givinostat = compound: CCN(CC)Cc1ccc2cc(COC(=O)Nc3ccc(C(=O)NO)cc3)ccc2c1 [givinostat]
In short: as §1

barasertib = compound: CCN(CCCOc1ccc2c(Nc3cc(CC(=O)Nc4cccc(F)c4)[nH]n3)ncnc2c1)CCOP(=O)(O)O [barasertib]
In short: as §1

[7] = compound: CC[C@@H]1C(=O)N(C)c2cnc(Nc3ccc(C(=O)NC4CCN(C)CC4)cc3OC)nc2N1C1CCCC1
In short: as §1

volasertib = compound: CC[C@@H]1C(=O)N(C)c2cnc(Nc3ccc(C(=O)N[C@H]4CC[C@H](N5CCN(CC6CC6)CC5)CC4)cc3OC)nc2N1C(C)C [volasertib]
In short: as §1

[8] = compound: CC[C@H](C)N1C=C(C2=C(C=C(C=C21)C3=CN=C(C=C3)N4CCNCC4)C(=O)NCC5=C(C=C(NC5=O)C)C)C
In short: as §1

epoxomicin = compound: CC[C@H](C)[C@@H](C(=O)N[C@@H]([C@@H](C)O)C(=O)N[C@@H](CC(C)C)C(=O)[C@]1(CO1)C)NC(=O)[C@H]([C@@H](C)CC)N(C)C(=O)C [epoxomicin]
In short: as §1

[9] = compound: CCn1c(C(=O)N(C2CC2)C2CC2)cc2c3c(ncn3C)c(Nc3cc(C)n(C)n3)nc21
In short: as §1

[10] = compound: CCn1cc(-c2ccnc3[nH]c(-c4cccc(CN(C)C)c4)cc23)c(-c2ccc(NC(=O)N(C)C)cc2)n1
In short: as §1

[11] = compound: CN(C)CC(=O)Nc1ccc2[nH]c(=O)c3ccccc3c2c1
In short: as §1

rosiglitazone = compound: CN(CCOC1=CC=C(C=C1)C[C@H]2C(=O)NC(=O)S2)C3=CC=CC=N3 (racemic) [rosiglitazone]
In short: as §1

[12] = compound: CN1C2=C(C3=C1C(=O)N(N=C3)CC4=CC(=CC=C4)N)SC(=C2)S(=O)C
In short: as §1

[13] = compound: CN1CCC(CNc2ccc3ncc(-c4cccc(OC(F)(F)F)c4)n3n2)CC1
In short: as §1

Measured: log2 fold change

PSPH (UniProt P78330)
inactive: [1] -0.044 | [2] -0.016 | [3] 0.078 | [4] 0.047 | Nexturastat A -0.097 | vemurafenib -0.007 | [5] 0.052 | [6] -0.038 | givinostat -0.024 | barasertib -0.022 | [7] 0.02 | volasertib 0.003 | [8] -0.03 | epoxomicin -0.017 | [9] -0.003 | [10] -0.025 | [11] 0.041 | rosiglitazone 0.006 | [12] -0.053 | [13] -0.023

PSMF1 (UniProt Q92530)
inactive: [1] -0.025 | [2] -0.008 | [3] 0.009 | [4] 0.011 | Nexturastat A 0.01 | vemurafenib -0.026 | [5] 0.007 | [6] -0.073 | givinostat 0.012 | barasertib 0.001 | [7] 0.009 | volasertib 0.035 | [8] -0.058 | epoxomicin -0.032 | [9] 0.006 | [10] -0.031 | [11] 0.001 | rosiglitazone 0.026 | [12] -0.057 | [13] -0.08

QTRT2 isoform 4 (UniProt Q9H974)
inactive: [1] -0.003 | [2] -0.033 | [3] -0.001 | [4] 0 | Nexturastat A -0.054 | vemurafenib -0.009 | [5] 0.008 | [6] -0.132 | givinostat -0.112 | barasertib 0.013 | [7] 0.023 | volasertib 0.05 | [8] 0 | epoxomicin 0.023 | [9] -0.015 | [10] -0.028 | [11] -0.002 | rosiglitazone 0.011 | [12] -0.056 | [13] -0.052

QPRT (UniProt Q15274)
inactive: [1] -0.031 | [2] -0.017 | [3] 0.051 | [4] 0.005 | Nexturastat A -0.004 | vemurafenib -0.06 | [5] 0.007 | [6] -0.061 | givinostat -0.036 | barasertib 0.003 | [7] -0.009 | volasertib 0.067 | [8] -0.004 | epoxomicin -0.006 | [9] -0.022 | [10] 0.031 | [11] -0.02 | rosiglitazone -0.024 | [12] -0.024 | [13] -0.018

PSMG1 (UniProt O95456)
inactive: [1] 0.034 | [2] 0.006 | [3] 0.001 | [4] 0.041 | Nexturastat A -0.078 | vemurafenib -0.002 | [5] -0.01 | [6] -0.019 | givinostat -0.014 | barasertib 0.028 | [7] 0.004 | volasertib 0.041 | [8] -0.028 | epoxomicin 0.041 | [9] 0.028 | [10] -0.018 | [11] -0.038 | rosiglitazone -0.011 | [12] -0.015 | [13] -0.013

PTPRA (UniProt P18433)
inactive: [1] -0.087 | [2] 0.024 | [3] -0.002 | [4] 0.021 | Nexturastat A -0.05 | vemurafenib 0.066 | [5] 0.002 | [6] -0.016 | givinostat 0.031 | barasertib 0 | [7] 0.009 | volasertib -0.214 | [8] 0.029 | epoxomicin 0.003 | [9] 0.006 | [10] -0.008 | [11] 0.089 | rosiglitazone 0.006 | [12] -0.031 | [13] 0.036

PYCR2 (UniProt Q96C36)
inactive: [1] 0.026 | [2] 0.01 | [3] 0.014 | [4] 0.041 | Nexturastat A -0.089 | vemurafenib 0.016 | [5] 0.03 | [6] 0.005 | givinostat -0.022 | barasertib -0.022 | [7] -0.012 | volasertib 0.056 | [8] -0.029 | epoxomicin -0.002 | [9] 0.013 | [10] -0.073 | [11] -0.011 | rosiglitazone -0.02 | [12] -0.04 | [13] 0.062

Quoted at random: two entries already listed, in no set order.
PSPH (UniProt P78330)
inactive: [1] -0.044 | [2] -0.016 | [3] 0.078 | [4] 0.047 | Nexturastat A -0.097 | vemurafenib -0.007 | [5] 0.052 | [6] -0.038 | givinostat -0.024 | barasertib -0.022 | [7] 0.02 | volasertib 0.003 | [8] -0.03 | epoxomicin -0.017 | [9] -0.003 | [10] -0.025 | [11] 0.041 | rosiglitazone 0.006 | [12] -0.053 | [13] -0.023

PYCR2 (UniProt Q96C36)
inactive: [1] 0.026 | [2] 0.01 | [3] 0.014 | [4] 0.041 | Nexturastat A -0.089 | vemurafenib 0.016 | [5] 0.03 | [6] 0.005 | givinostat -0.022 | barasertib -0.022 | [7] -0.012 | volasertib 0.056 | [8] -0.029 | epoxomicin -0.002 | [9] 0.013 | [10] -0.073 | [11] -0.011 | rosiglitazone -0.02 | [12] -0.04 | [13] 0.062

The list goes on.

PTBP1 (UniProt P26599)
inactive: [1] 0.076 | [2] -0.053 | [3] 0.074 | [4] 0.049 | Nexturastat A 0.073 | vemurafenib 0.065 | [5] 0.088 | [6] 0.003 | givinostat 0.046 | barasertib -0.029 | [7] -0.112 | volasertib -0.195 | [8] 0.065 | epoxomicin 0.01 | [9] -0.018 | [10] -0.054 | [11] 0.022 | rosiglitazone -0.017 | [12] -0.057 | [13] -0.085

PSME2 (UniProt Q9UL46)
inactive: [1] 0.014 | [2] -0.053 | [3] 0.007 | [4] 0.035 | Nexturastat A -0.072 | vemurafenib -0.018 | [5] 0.034 | [6] -0.006 | givinostat 0.012 | barasertib 0.039 | [7] -0.002 | volasertib -0.079 | [8] -0.029 | epoxomicin -0.04 | [9] -0.008 | [10] -0.031 | [11] -0.087 | rosiglitazone -0.007 | [12] -0.061 | [13] -0.036

PSMA6 (UniProt P60900)
inactive: [1] 0.041 | [2] 0.006 | [3] -0.013 | [4] 0.009 | Nexturastat A -0.013 | vemurafenib -0.05 | [5] -0.009 | [6] -0.022 | givinostat -0.044 | barasertib -0.069 | [7] 0.074 | volasertib 0.109 | [8] -0.031 | epoxomicin -0.184 | [9] 0.009 | [10] 0.007 | [11] -0.027 | rosiglitazone -0.044 | [12] 0.014 | [13] 0.039

PTGS1 isoform 6 (UniProt P23219)
inactive: [1] 0.033 | [2] 0.014 | [3] 0.035 | [4] 0.015 | Nexturastat A -0.027 | vemurafenib 0 | [5] -0.023 | [6] 0.066 | givinostat -0.004 | barasertib 0.003 | [7] 0.031 | volasertib 0.06 | [8] 0.013 | epoxomicin -0.003 | [9] 0.065 | [10] 0.029 | [11] -0.056 | rosiglitazone 0.019 | [12] 0.001 | [13] 0.108

PYCARD (UniProt Q9ULZ3)
inactive: [1] -0.006 | [2] 0.069 | [3] 0.017 | [4] 0.09 | Nexturastat A -0.096 | vemurafenib 0.087 | [5] 0.036 | [6] -0.07 | givinostat -0.041 | barasertib 0.063 | [7] -0.014 | volasertib -0.081 | [8] -0.008 | epoxomicin 0.033 | [9] -0.023 | [10] 0.008 | [11] -0.004 | rosiglitazone 0.007 | [12] -0.073 | [13] -0.037

PRXL2B isoform 3 (UniProt Q8TBF2)
inactive: [1] 0.033 | [2] -0.023 | [3] 0.012 | [4] 0.07 | Nexturastat A -0.177 | vemurafenib -0.008 | [5] 0.012 | [6] 0.026 | givinostat -0.062 | barasertib 0.003 | [7] -0.067 | volasertib 0.015 | [8] 0.04 | epoxomicin 0.008 | [9] -0.024 | [10] 0.026 | [11] -0.012 | rosiglitazone 0.045 | [12] -0.03 | [13] -0.072

PUS10 (UniProt Q3MIT2)
inactive: [1] -0.049 | [2] 0.035 | [3] -0.077 | [4] 0 | Nexturastat A -0.08 | vemurafenib 0.017 | [5] 0.08 | [6] 0.044 | givinostat 0.034 | barasertib 0.109 | [7] -0.131 | volasertib -0.271 | [8] -0.036 | epoxomicin 0.001 | [9] 0.109 | [10] -0.011 | [11] -0.004 | rosiglitazone -0.001 | [12] -0.118 | [13] -0.045

PUDP isoform 4 (UniProt Q08623)
inactive: [1] 0.025 | [2] -0.012 | [3] 0.073 | [4] 0.055 | Nexturastat A -0.048 | vemurafenib 0.067 | [5] 0.061 | [6] -0.017 | givinostat -0.049 | barasertib 0.038 | [7] -0.015 | volasertib 0.004 | [8] 0.001 | epoxomicin -0.085 | [9] -0.023 | [10] -0.06 | [11] 0.013 | rosiglitazone 0.016 | [12] -0.031 | [13] -0.008

PWP2 (UniProt Q15269)
inactive: [1] -0.007 | [2] -0.042 | [3] -0.059 | [4] -0.016 | Nexturastat A 0.189 | vemurafenib 0.001 | [5] 0.093 | [6] 0.068 | givinostat 0 | barasertib 0.061 | [7] 0.057 | volasertib -0.159 | [8] 0.04 | epoxomicin 0.06 | [9] -0.003 | [10] 0.052 | [11] -0.006 | rosiglitazone -0.068 | [12] 0.193 | [13] 0.114
